# PubChem BioAssay AID686938 – Drosophila RNAi Screening Center | 2013
# Purpose: 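Looking for CRAC channel components and the factors controlling them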 (primary screen)
# Cells: Drosophila S2R+ cells
# Knock-down reagent: long dsRNA against Drosophila genes, about 0.25 µg dsRNA per well, roughly 10,000 cells
# Timing: 5 days of knock-down before the calcium assay
# Conditions: thapsigargin (SERCA pump blocker) to empty calcium stores; entry signal taken 4 min after adding it
# Detection: 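Duplicate raw fluo-4 intensities per well from a plate reader, at rest and four minutes after thapsigargin emptied calcium stores; entry-to-rest ratio filled for only some wells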
# Scale: calcium entry signal: higher = stronger calcium signal after store depletion; entry to resting ratio: higher = more calcium entry relative to resting level; resting calcium signal: higher = higher resting calcium signal
# Rule for the call: 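Hit if the duplicate-averaged plate z-score for entry over resting signal is under −3; wells with weak total dye signal (Fmax z < −2) or more than 5 off-targets removed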
# Meaning of the calls: active = strongly reduced calcium entry; inactive = no strong reduction
# In all, the deposit lists about 23,000 reagents; below is a random part of those that have a named target and a result. Over the whole deposit, 75 (0.33%) were called active. 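Raw plate signals without normalisation; calls rest on plate z-scores that were not deposited; ratio present for only 364 wells.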 A plus sign joins genes that one reagent is predicted to hit. Not given: the dose of the treatment.
gene,amplicon,"calcium entry signal, replicate 1 (fluorescence units)","calcium entry signal, replicate 2 (fluorescence units)",entry to resting ratio,"resting calcium signal, replicate 1 (fluorescence units)","resting calcium signal, replicate 2 (fluorescence units)",Outcome
CG14877,DRSC15001,3.93e7,4.34e7,,1.85e7,5.57e7,inactive
snky,DRSC09838,3.45e7,4.72e7,,1.81e7,2.06e7,inactive
CG31041,DRSC13951,3.84e7,3.92e7,,1.73e7,2.11e7,inactive
ATP8A,DRSC05421,3.38e7,4.66e7,,1.55e7,1.92e7,inactive
ATP8A,DRSC06643,2.56e7,2.41e7,,1.14e7,1.19e7,inactive
ATP8A,DRSC06644,3.19e7,2.92e7,,1.64e7,1.43e7,inactive
LanA,DRSC11207,4.27e7,3.32e7,,2.75e7,1.47e7,inactive
Cmpk,DRSC16643,3.61e7,3.66e7,,1.67e7,1.72e7,inactive
CG42789,DRSC13793,3.04e7,1.84e7,,1.33e7,9.91e6,inactive
Bacc,DRSC00735,3.70e7,4.86e7,,1.87e7,1.92e7,inactive
Ctr1B + Poxm,DRSC16245,3.47e7,2.53e7,,1.59e7,1.32e7,inactive
CG15034,DRSC17966,3.56e7,3.76e7,,1.80e7,1.78e7,inactive
Rab14,DRSC03403,4.28e7,,,2.06e7,,inactive
CG33514,DRSC08471,2.46e7,2.14e7,,1.50e7,1.04e7,inactive
CG33514,DRSC08472,1.65e7,3.91e7,,9.13e6,1.56e7,inactive
CG33514,DRSC21670,4.28e7,3.73e7,,2.51e7,1.79e7,inactive
CG14740,DRSC14960,3.01e7,4.21e7,,1.42e7,1.85e7,inactive
CG8191 + CG12379,DRSC19451,3.23e7,2.98e7,,1.57e7,1.28e7,inactive
Aven,DRSC19693,2.34e7,3.32e7,,1.24e7,1.56e7,inactive
CG15922,DRSC15128,3.94e7,3.59e7,,5.70e7,1.71e7,inactive
CG4707,DRSC04483,3.29e7,,,1.70e7,,inactive
alphaTub67C,DRSC11321,2.54e7,3.53e7,,1.58e7,2.08e7,inactive
frma,DRSC18297,2.43e7,2.59e7,,1.13e7,1.23e7,inactive
CG10301,DRSC14226,4.57e7,4.22e7,,2.16e7,1.94e7,inactive
jar,DRSC16974,3.95e7,7.39e7,,2.03e7,2.80e7,inactive
CG14624,DRSC18634,4.33e7,5.35e7,2.4,1.84e7,2.29e7,inactive
CG18545,DRSC15343,3.11e7,3.53e7,,1.52e7,1.82e7,inactive
CG42680,DRSC01399,3.03e7,4.39e7,,1.58e7,1.93e7,inactive
Diedel,DRSC14317,4.14e7,5.44e7,,1.90e7,2.06e7,inactive
ACXA,DRSC00844,4.97e7,3.17e7,,2.18e7,1.44e7,inactive
CG15905,DRSC06591,3.61e7,5.07e7,,1.61e7,2.21e7,inactive
Phf7,DRSC20692,4.85e7,4.21e7,,2.29e7,2.01e7,inactive
Art1,DRSC16063,4.42e7,4.66e7,,1.85e7,2.21e7,inactive
Tmlh,DRSC15563,3.61e7,4.54e7,,5.63e7,2.02e7,inactive
CG18171,DRSC08524,3.60e7,3.96e7,,1.89e7,1.80e7,inactive
ItgaPS5,DRSC04501,4.56e7,4.97e7,,2.32e7,2.24e7,inactive
Cyp4d1,DRSC17694,5.24e7,3.89e7,,2.53e7,1.89e7,inactive
Cyp4d1,DRSC18456,4.81e7,4.95e7,2,2.42e7,2.15e7,inactive
CG13658,DRSC14659,3.36e7,4.92e7,,1.88e7,2.19e7,inactive
CG14627,DRSC18630,4.32e7,4.54e7,1.8,2.45e7,2.38e7,inactive
CG42810,DRSC02533,3.36e7,2.18e7,,1.71e7,1.11e7,inactive
CG34028,DRSC17614,2.50e7,2.72e7,,1.28e7,1.30e7,inactive
CG14355,DRSC14818,2.75e7,3.43e7,,1.32e7,1.45e7,inactive
Cpr47Ed,DRSC07331,2.66e7,3.53e7,,1.46e7,1.46e7,inactive
CG17650,DRSC00510,3.49e7,3.87e7,,1.74e7,1.61e7,inactive
CG6791,DRSC16118,2.96e7,4.30e7,,1.23e7,1.97e7,inactive
tea,DRSC06110,2.68e7,3.20e7,,1.59e7,1.65e7,inactive
tea,DRSC06236,2.83e7,2.29e7,,1.33e7,1.30e7,inactive
CG14683,DRSC17035,3.74e7,4.98e7,,1.53e7,2.02e7,inactive
ttm3,DRSC03736,2.99e7,4.19e7,,1.41e7,1.81e7,inactive
CG9416,DRSC07339,3.72e7,3.75e7,,1.60e7,1.71e7,inactive
PEK,DRSC12361,2.62e7,2.76e7,,1.37e7,1.58e7,inactive
CtIP,DRSC11785,2.56e7,4.04e7,,1.28e7,1.72e7,inactive
CG15912,DRSC18105,3.53e7,4.40e7,,1.83e7,1.90e7,inactive
Set1,DRSC20930,2.46e7,3.41e7,,1.54e7,2.18e7,inactive
Set1,DRSC20931,3.39e7,4.00e7,,2.39e7,2.52e7,inactive
betaggt-I,DRSC03494,4.34e7,3.72e7,,2.04e7,1.63e7,inactive
CG15572,DRSC18060,2.95e7,3.54e7,,1.37e7,1.65e7,inactive
CG15539,DRSC15075,4.20e7,4.43e7,,2.04e7,1.91e7,inactive
CG14805,DRSC18554,4.60e7,4.71e7,1.9,2.45e7,2.13e7,inactive
CG15615,DRSC06568,3.37e7,4.59e7,,1.52e7,2.18e7,inactive
frac,DRSC10867,4.15e7,3.00e7,,2.81e7,1.45e7,inactive
cyst,DRSC02023,3.48e7,,,1.80e7,,inactive
CG7071 + Muted,DRSC16189,4.61e7,5.29e7,,5.00e7,2.36e7,inactive
CG42342,DRSC13165,3.37e7,2.55e7,,1.85e7,1.28e7,inactive
CG42342,DRSC14378,4.84e7,1.92e7,,2.41e7,1.14e7,inactive
CG42342,DRSC15010,2.33e7,3.50e6,,1.21e7,5.71e7,inactive
CG42342,DRSC15011,2.38e7,3.80e7,,1.23e7,4.36e7,inactive
CG42342,DRSC15012,2.13e7,2.99e7,,1.10e7,4.99e7,inactive
CG42342,DRSC21791,4.73e7,3.75e7,,2.57e7,1.78e7,inactive
CG42342,DRSC22861,1.63e7,3.06e7,,9.07e6,1.46e7,inactive
CG42342,DRSC23112,5.98e7,3.36e7,,2.55e7,1.45e7,inactive
CG32263,DRSC22431,4.42e7,3.64e7,,2.19e7,1.56e7,inactive
kay,DRSC13962,3.72e7,3.82e7,,1.82e7,2.04e7,inactive
kay,DRSC15048,3.68e7,4.71e7,,1.91e7,2.16e7,inactive
kay,DRSC16977,4.33e7,4.66e7,,2.43e7,2.73e7,inactive

Not a retest: 7 of the entries above.
gene,amplicon,"calcium entry signal, replicate 1 (fluorescence units)","calcium entry signal, replicate 2 (fluorescence units)",entry to resting ratio,"resting calcium signal, replicate 1 (fluorescence units)","resting calcium signal, replicate 2 (fluorescence units)",Outcome
Cmpk,DRSC16643,3.61e7,3.66e7,,1.67e7,1.72e7,inactive
CG42789,DRSC13793,3.04e7,1.84e7,,1.33e7,9.91e6,inactive
Bacc,DRSC00735,3.70e7,4.86e7,,1.87e7,1.92e7,inactive
Ctr1B + Poxm,DRSC16245,3.47e7,2.53e7,,1.59e7,1.32e7,inactive
CG15034,DRSC17966,3.56e7,3.76e7,,1.80e7,1.78e7,inactive
Rab14,DRSC03403,4.28e7,,,2.06e7,,inactive
CG33514,DRSC08471,2.46e7,2.14e7,,1.50e7,1.04e7,inactive
